The values below come from patent US12349973B2 (priority 2019, dated 2025).

The assay relates to pupil light response / muscarinic receptors within the iris. Details: species or system human. The following applies: in vivo.

On to `CN1[C@@H]2CC[C@H]1C[C@@H](OC(=O)C(CO)c1ccccc1)C2` (stereo partly shown) [atropine], for which the “ratio of pupil velocity at 2x latency, post- to pre-treatment (V400post/V400pre)” value is listed as 65%.
